Results are given in words; binding and its absence hold for the method and conditions named. Some results given as binding are weak or reduced against the parent protein; the word gives no strength.

By UniProt entry, the sequences of proteins in these tests, tags left out.
UniProt P27318: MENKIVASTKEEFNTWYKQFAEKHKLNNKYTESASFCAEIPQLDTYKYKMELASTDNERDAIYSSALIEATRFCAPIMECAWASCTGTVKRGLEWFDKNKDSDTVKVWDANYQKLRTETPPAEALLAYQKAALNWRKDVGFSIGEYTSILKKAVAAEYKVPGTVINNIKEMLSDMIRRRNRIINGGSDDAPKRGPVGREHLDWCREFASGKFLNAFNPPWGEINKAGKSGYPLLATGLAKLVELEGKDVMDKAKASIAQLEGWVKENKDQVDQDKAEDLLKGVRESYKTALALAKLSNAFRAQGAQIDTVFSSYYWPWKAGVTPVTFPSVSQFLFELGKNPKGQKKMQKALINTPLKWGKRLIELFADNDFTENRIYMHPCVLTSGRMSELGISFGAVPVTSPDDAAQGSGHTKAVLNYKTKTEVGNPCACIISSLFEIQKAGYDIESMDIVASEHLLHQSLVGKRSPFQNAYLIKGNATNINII

For this experiment, the target named is Hazara virus nucleocapsid protein (HAZV N), strain JC280 (Hazara virus strain JC280) (UniProt P27318). Description: crystal structure; HAZV N at 10 mg/mL, crystals from 15 % PEG 10,000, 100 mM sodium citrate pH 5, 100 mM NaCl, 2 % dioxane; P212121, four monomers in the asymmetric unit, 2.7 Å; RNA free; both purified.

Regarding “Hazara virus nucleocapsid protein (HAZV N), strain JC280 (from UniProt P27318 1-485)”, the binding result is given as “binds”.

The record behind these values is paper PMC4696240.
